Reference: PubChem BioAssay AID1487 (National Center for Advancing Translational Sciences (NCATS), 2009)
Values joined by “and” are separate entries in the source; they are usually repeats but may differ in a detail not shown here. Equal values may be shown once. The list shows a part of the results. The main result of the screen is listed elsewhere. These columns were measured beside it and carry no call. The list favours compounds with an active or inconclusive main result. The note in brackets gives the kind of curve behind each potency; many fits are weak.

Assay: qHTS Assay for Modulators of Lamin A Splicing
Settings: HeLa LMNA splicing GFP/RFP minigene ratio, 48 h
Method in brief: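 Read-out is the ratio of GFP to DsRed2 object intensity, acquired by 488 nm laser-scanning cytometry on HeLa lamin A-EGFP minigene reporter cells. Compound incubation 48 hrs at 37 °C in Opti-MEM with 2% FBS; DMSO 0.5% final.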

[1] = measured here: RFP viability control channel
[2] = measured here: GFP splicing reporter channel

| Compound | AC50 [1] | AC50 [2] |
| --- | --- | --- |
| CCCCOC(=O)c1ccc(Nc2nnc(-n3nc(C)cc3C)c3ccccc23)cc1 | 0.00316 µM [falling, full curve, poor fit] | – |
| CCOc1ccc(OCC)c(NC(=O)CSc2nnc(Cn3cnc4ccccc43)n2C)c1 | 35.5 µM [rising, single point] | – |
| Cc1ccc(Cl)cc1NC(=O)C1CCN(c2nc3ccccc3n3cccc23)CC1 | 31.6 µM [falling, partial curve] | 25.1 µM [falling, partial curve] |
| CCCc1nc(SCC(=O)Nc2nc3c(s2)CCCC3)c2ccccc2n1 | 35.5 µM [falling, single point] | 35.5 µM [falling, single point] |
| O=C(CSCc1ccc(F)cc1)Nc1nc2c(s1)CCCC2 | 11.2 µM [rising, partial curve, poor fit] | – |
| COc1cccc(-c2cc(C(=O)N3CCN(Cc4ccccc4)CC3)no2)c1 | 14.1 µM [rising, single point] | – |
| O=C(Cn1cnc2ccccc2c1=O)N1CCc2ccccc2C1 | – | 0.0224 µM [rising, full curve, poor fit] |
| O=C1CN(C(=O)COc2ccc(Br)cc2)c2ccccc2N1 | 5.01 µM [falling, full curve, poor fit] | – |
| CCCN(CCC)c1nc2ccccc2nc1C(C#N)C(=O)OCCOC (configuration not stated) | – | 35.5 µM [rising, single point] |
| Cc1cnccc1CN(C)C(=O)CC1C(=O)NCCN1CC1CCCCC1 (configuration not stated) | 17.8 µM [falling, partial curve, poor fit] | 17.8 µM [falling, partial curve, poor fit] |
| Cc1cccc(OCCN2C(=O)C(=O)c3cc(C)ccc32)c1 | 2.24 µM [falling, partial curve, poor fit] | 17.8 µM [falling, partial curve, poor fit] |
| CCOC(=O)c1ccc2c(c1)N(Cc1ccccc1C)C(=O)c1ccccc1S2=O (configuration not stated) | 10 µM [rising, partial curve] | 3.16 µM [rising, full curve, poor fit] |
| O=S(=O)(Nc1ncnc2sc3c(c12)CCC3)c1ccc2ccccc2c1 | 12.6 µM [rising, partial curve] | 14.1 µM [rising, single point] |
| CC(C)Cn1c(N)c(C(=O)COC(=O)c2cc(-c3ccccc3)nc3ccccc23)c(=O)n(C)c1=O | 14.1 µM [rising, single point] | – |
| COc1ccccc1NS(=O)(=O)c1cc(NC(=O)/C=C/c2cccs2)ccc1N1CCOCC1 | 14.1 µM [rising, single point] | – |
| CC(C)c1ccc(OCc2cccc(C(=O)N/N=C/c3cccnc3)c2)cc1 | 0.251 µM [falling, full curve, poor fit] | – |
| CCCCCCNC(=O)n1cc(F)c(=O)[nH]c1=O | 0.1 µM [rising, full curve] | 14.1 µM [rising, partial curve, poor fit] |
| O=C(c1cc2ccccn2n1)N1CCN(c2cccc(C(F)(F)F)c2)CC1 | 8.91 µM [rising, partial curve] | 3.98 µM [rising, full curve, poor fit] |
| N=c1c2c3c(sc2ncn1Cc1ccccc1)CCCC3 | 22.4 µM [rising, partial curve] | 11.2 µM [rising, partial curve] |
| Nc1n[nH]c(-c2ccccc2)c1-c1ccccc1 | – | 35.5 µM [rising, single point] |
| COC(=O)c1cc(NS(=O)(=O)c2cc(Br)cc3c2N(C(C)=O)CC3)cc(C(=O)OC)c1 | 1.26 µM [rising, partial curve, poor fit] | 1.78 µM [rising, partial curve, poor fit] |
| COC(=O)c1ccc(-n2c(C)cc(C(=O)CCl)c2C)cc1 | 35.5 µM [falling, single point] | 25.1 µM [falling, single point] |
| Cc1cc(C(=O)CSc2nnc(-c3ccccc3F)o2)c(C)n1Cc1cccs1 | 15.8 µM [rising, partial curve] | 17.8 µM [rising, partial curve] |
| CCCC(=O)c1ccc(OC(=O)c2c(-c3ccccc3Cl)noc2C)cc1 | – | 0.282 µM [falling, full curve, poor fit] |
| CCOC(=O)c1c(CN2CCOCC2)n(-c2ccccc2)c2cc(Br)c(O)cc12 | 12.6 µM [falling, partial curve] | – |
| N#Cc1c(NC(=O)CS(=O)(=O)c2ccc(Cl)cc2)sc2c1CCCCC2 | 31.6 µM [rising, single point] | – |
| CC1CN(C(=O)c2cccs2)CCN1C(=O)c1cccs1 (configuration not stated) | 35.5 µM [rising, single point] | – |

Looked up by structure from above, five records:

| Compound | AC50 [1] | AC50 [2] |
| --- | --- | --- |
| CCOC(=O)c1c(CN2CCOCC2)n(-c2ccccc2)c2cc(Br)c(O)cc12 | 12.6 µM [falling, partial curve] | – |
| Nc1n[nH]c(-c2ccccc2)c1-c1ccccc1 | – | 35.5 µM [rising, single point] |
| Cc1ccc(Cl)cc1NC(=O)C1CCN(c2nc3ccccc3n3cccc23)CC1 | 31.6 µM [falling, partial curve] | 25.1 µM [falling, partial curve] |
| CCOC(=O)c1ccc2c(c1)N(Cc1ccccc1C)C(=O)c1ccccc1S2=O (configuration not stated) | 10 µM [rising, partial curve] | 3.16 µM [rising, full curve, poor fit] |
| CCCCCCNC(=O)n1cc(F)c(=O)[nH]c1=O | 0.1 µM [rising, full curve] | 14.1 µM [rising, partial curve, poor fit] |

(continued)

| Compound | AC50 [1] | AC50 [2] |
| --- | --- | --- |
| Cc1nc2ccc(S(=O)(=O)N(C)CC(=O)N3CCc4ccccc43)cc2s1 | 25.1 µM [rising, partial curve] | 25.1 µM [rising, single point] |
| CCN(CC)S(=O)(=O)c1cccc(-c2nc3n(n2)Cc2ccccc2-3)c1 | 11.2 µM [rising, partial curve, poor fit] | – |
| C[C@H]1Cc2c(-c3ccccc3)nc3c(c2CO1)CN(C(=O)NCCc1c[nH]c2ccccc12)CC3 | – | 0.562 µM [rising, partial curve, poor fit] |
| O=C(CSc1ccc2nnc(CCNS(=O)(=O)c3ccccc3)n2n1)Nc1nc2ccccc2s1 | 15.8 µM [rising, single point] | – |
| CCCCCOC(=O)C1[C@H]2C(=O)N(CCCOC)C[C@]23C=C[C@H]1O3 (some centres not stated) | 0.02 µM [falling, full curve, poor fit] | – |
| O=C(NNC(=S)Nc1ccccc1C(F)(F)F)c1ccc(Br)o1 | 0.158 µM [falling, full curve, poor fit] | 0.316 µM [falling, full curve, poor fit] |
| COc1cccc(NC(=O)c2ccc3nc(Cc4ccccc4)oc3c2)c1 | – | 11.2 µM [rising, single point] |
| CC(C)(CO)NCc1cc(Br)ccc1OCc1ccccc1 | 20 µM [rising, single point] | – |
| CCc1ccc(-n2c(SCc3cccc(F)c3)nc3[nH]ncc3c2=O)cc1 | – | 5.62 µM [rising, single point] |
| S=C(NCc1ccco1)N1CCN(C/C=C/c2ccccc2)CC1 | – | 17.8 µM [falling, partial curve] |
| COc1ccc(N(C)C(=O)c2cc(S(=O)(=O)N3CCc4ccccc43)cn2C)c(OC)c1 | 35.5 µM [falling, partial curve] | 12.6 µM [falling, partial curve] |
| O=C(CSc1nc2cc(S(=O)(=O)N3CCOCC3)ccc2o1)NC1CCCc2ccccc21 (configuration not stated) | 15.8 µM [rising, partial curve] | 15.8 µM [rising, partial curve, poor fit] |
| CN(Cc1ccon1)C(=O)CCc1nnc(Cc2ccc(-c3ccccc3)cc2)o1 | – | 20 µM [falling, partial curve, poor fit] |
| O=C(CSc1nc2ccccc2[nH]1)N=Nc1c(O)[nH]c2ccccc12 | 12.6 µM [rising, partial curve, poor fit] | – |
| Cc1ccc(S(=O)(=O)Nc2ccc(N(C)C)cc2)cc1 | 0.00316 µM [rising, full curve, poor fit] | – |
| CCN(CC)S(=O)(=O)c1cccc(C(=O)N[C@H](C(=O)NCc2ccc(Cl)cc2)C(C)C)c1 | 11.2 µM [rising, partial curve] | – |
| COc1cc(CNCCc2c[nH]c3ccccc23)cc(Cl)c1OCC(N)=O | 2.82 µM [falling, full curve, poor fit] | – |
| Cc1onc(-c2ccccc2)c1C(=O)N1CC(C)OC(C)C1 (configuration not stated) | 4.47 µM [falling, full curve, poor fit] | 5.62 µM [falling, full curve, poor fit] |
| COc1ccc(C(=O)N2CCN(c3nc4ccccc4o3)CC2)cc1OC | 14.1 µM [rising, single point] | – |
| Cc1onc(C(=O)NCc2cccs2)c1[N+](=O)[O-] | – | 5.62 µM [rising, full curve] |
| COc1ccc(C2Nc3ccccc3C(=O)N2c2ccccc2)cc1COc1ccccn1 (configuration not stated) | – | 0.1 µM [rising, full curve] |
| COc1ccc(Cl)cc1C(=O)NCCc1ccc(S(=O)(=O)NC(=O)NC2CCCCC2)cc1 | 11.2 µM [falling, partial curve, poor fit] | 10 µM [falling, partial curve, poor fit] and 5.62 µM [falling, partial curve, poor fit] and 282 nM [falling, full curve, poor fit] |
| c1ccc(-c2nnc(-c3ccccn3)nc2NC2CCCCC2)cc1 | 6.31 µM [rising, full curve] | – |
| Nc1nc(=O)n([C@@H]2CS[C@H](CO)O2)cc1F | 17.8 µM [rising, partial curve, poor fit] | 0.0398 µM [falling, partial curve, poor fit] |
| O=C(CN1CCN(S(=O)(=O)c2ccc(Br)cc2)CC1)N/N=C/c1cc([N+](=O)[O-])ccc1Cl | 22.4 µM [rising, partial curve, poor fit] | – |
| CCOC(=O)c1cnn(-c2cc(Oc3ccccc3C)ncn2)c1N | 35.5 µM [rising, single point] | – |
